Data as given in PubChem BioAssay AID1259425 (University of Nebraska Medical Center, 2018).
The whole screen tested about 14,000 reagents; this is a random part of them. Not all columns of the deposit are shown. Not given: the time to read-out.

Test: 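Seek colon cancer weak points whose silencing resembles KSR1 loss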 (primary screen)
Cells: HCT116 human colon cancer cells
Reagent: siRNA pool against human genes, 50 nM siRNA
Measured: 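mRNA of six signature genes measured together by branched-DNA assay after 50 nM siRNA pool, blank removed, divided by geometric mean of two housekeeping genes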
Scale: BNIP3L mRNA: higher = more BNIP3L transcript after knockdown; NDRG1 mRNA: higher = more NDRG1 transcript after knockdown

What is on record for TRAPPC11 (GeneID 60684)?
BNIP3L mRNA, set 1: 0.103; NDRG1 mRNA, set 1: 0.122

What did the screen give for GSTA2 (GeneID 2939)?
BNIP3L mRNA, set 1: 0.178; NDRG1 mRNA, set 1: 0.236

How did the screen score RPL37A (GeneID 6168)?
BNIP3L mRNA, set 1: 0.204; NDRG1 mRNA, set 1: 0.564

For ME1 (GeneID 4199), what does the deposit list?
BNIP3L mRNA, set 1: 0.0586; NDRG1 mRNA, set 1: 0.0917

How did the screen score HK1 (GeneID 3098)?
BNIP3L mRNA, set 1: 0.139; NDRG1 mRNA, set 1: 0.0937

With ZNF197 (GeneID 10168), how do the results read?
BNIP3L mRNA, set 1: 0.113; NDRG1 mRNA, set 1: 0.114

How did the screen score ELF4 (GeneID 2000)?
BNIP3L mRNA, set 1: 0.133; NDRG1 mRNA, set 1: 0.121

Which result is listed for CXCL11 (GeneID 6373)?
BNIP3L mRNA, set 1: 0.0536; NDRG1 mRNA, set 1: 0.145

With SPATS2L (GeneID 26010), how do the results read?
BNIP3L mRNA, set 1: 0.101; NDRG1 mRNA, set 1: 0.502

What is on record for TAS1R3 (GeneID 83756)?
BNIP3L mRNA, set 1: 0.471; NDRG1 mRNA, set 1: 0.746

With DPF2 (GeneID 5977), how do the results read?
BNIP3L mRNA, set 1: 0.0659; NDRG1 mRNA, set 1: 0.207

With BRIP1 (GeneID 83990), what was measured?
BNIP3L mRNA, set 1: 0.068; NDRG1 mRNA, set 1: 0.0876

For HTRA2 (GeneID 27429), what does the deposit list?
BNIP3L mRNA, set 1: 0.102; NDRG1 mRNA, set 1: 0.126

How did the screen score UGT1A4 (GeneID 54657)?
BNIP3L mRNA, set 1: 0.116; NDRG1 mRNA, set 1: 0.348

Which result is listed for LRRC19 (GeneID 64922)?
BNIP3L mRNA, set 1: 0.0952; NDRG1 mRNA, set 1: 0.0746

With RNF20 (GeneID 56254), what does the deposit list?
BNIP3L mRNA, set 1: 0.124; NDRG1 mRNA, set 1: 0.883

What did the screen give for TMEM109 (GeneID 79073)?
BNIP3L mRNA, set 1: 0.0773; NDRG1 mRNA, set 1: 0.194

What did the screen give for SOX2 (GeneID 6657)?
BNIP3L mRNA, set 1: 0.096; NDRG1 mRNA, set 1: 0.428

Which result is listed for CDH11 (GeneID 1009)?
BNIP3L mRNA, set 1: 0.089; NDRG1 mRNA, set 1: 0.111
